In this assay the target is bovine serum albumin (bovine) (UniProt P02769). Description: far-Western, overlay or dot blot; BSA, ZapE and FtsZ (10 μM each; FtsZ alone or with 2 mM GDP or 2 mM GTP) spotted on nitrocellulose, blocked with 2% BSA, incubated with ZapE (8 μM) and ATP (4 mM) in 50 mM HEPES pH 7.5, 150 mM KCl, 20 mM MgCl2, 23°C, 1 h; probed with anti-ZapE antiserum; both purified.

Protein sequences, listed by entry. Tags and fused reporters are not part of them. Residues count along the entry.
UniProt P02769, residues 25-607: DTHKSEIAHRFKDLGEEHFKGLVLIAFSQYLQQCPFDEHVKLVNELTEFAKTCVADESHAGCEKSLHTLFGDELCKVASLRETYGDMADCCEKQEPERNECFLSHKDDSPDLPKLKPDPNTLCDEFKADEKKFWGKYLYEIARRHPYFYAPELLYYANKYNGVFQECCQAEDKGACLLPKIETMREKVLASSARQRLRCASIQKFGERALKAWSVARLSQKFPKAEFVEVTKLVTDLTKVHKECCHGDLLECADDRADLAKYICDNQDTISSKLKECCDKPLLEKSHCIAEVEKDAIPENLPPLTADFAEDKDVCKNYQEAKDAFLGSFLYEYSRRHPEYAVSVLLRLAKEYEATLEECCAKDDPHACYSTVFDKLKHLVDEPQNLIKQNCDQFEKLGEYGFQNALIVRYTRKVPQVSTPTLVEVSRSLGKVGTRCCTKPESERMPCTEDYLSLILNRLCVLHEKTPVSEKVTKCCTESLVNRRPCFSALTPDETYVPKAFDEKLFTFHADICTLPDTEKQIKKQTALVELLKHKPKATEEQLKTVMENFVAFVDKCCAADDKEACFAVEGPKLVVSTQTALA

These are yes or no findings as the source states them, for the method shown. Sequences can lack the tags named with a protein.

B1: ZapE (N-terminal six histidine fusion protein) (enzyme, Escherichia coli, UniProt P64612 1-375, looked up)
chain: MQSVTPTSQYLKALNEGSHQPDDVQKEAVSRLEIIYQELINSTPPAPRTSGLMARVGKLWGKREDTKHTPVRGLYMWGGVGRGKTWLMDLFYQSLPGERKQRLHFHRFMLRVHEELTALQGQTDPLEIIADRFKAETDVLCFDEFFVSDITDAMLLGGLMKALFARGITLVATSNIPPDELYRNGLQRARFLPAIDAIKQHCDVMNVDAGVDYRLRTLTQAHLWLSPLHDETRAQMDKLWLALAGGKRENSPTLEINHRPLATMGVENQTLAVSFTTLCVDARSQHDYIALSRLFHTVMLFDVPVMTRLMESEARRFIALVDEFYERHVKLVVSAEVPLYEIYQGDRLKFEFQRCLSRLQEMQSEEYLKREHLAG
On to B1, for which the binding entry is “no binding (tested: ZapE 8 μM on BSA spotted at 10 μM)”.
